Data: PubChem BioAssay AID2567 (National Center for Advancing Translational Sciences (NCATS), 2010)
This list was built around the results that the source calls inconclusive (neither active nor inactive); the mix of calls is not that of the screen. Potencies beside an inconclusive call are fits to weak or partial responses and may not hold up. Calls of active or inactive are those of the source. The call rests on the fitted dose curve; in most records, active means well fitted antagonist curve with a large enough effect in the main read-out, with a control signal flat; inconclusive means small, poorly fitted or top-dose-only effect; inactive means no such curve, though single readings can be large or run the other way.

Protein sequences, listed by entry. Tags and fused reporters are not part of them. Lines headed by an entry give the natural chain unless they say otherwise; changes in a name come on top.
UniProt Q6W5P4: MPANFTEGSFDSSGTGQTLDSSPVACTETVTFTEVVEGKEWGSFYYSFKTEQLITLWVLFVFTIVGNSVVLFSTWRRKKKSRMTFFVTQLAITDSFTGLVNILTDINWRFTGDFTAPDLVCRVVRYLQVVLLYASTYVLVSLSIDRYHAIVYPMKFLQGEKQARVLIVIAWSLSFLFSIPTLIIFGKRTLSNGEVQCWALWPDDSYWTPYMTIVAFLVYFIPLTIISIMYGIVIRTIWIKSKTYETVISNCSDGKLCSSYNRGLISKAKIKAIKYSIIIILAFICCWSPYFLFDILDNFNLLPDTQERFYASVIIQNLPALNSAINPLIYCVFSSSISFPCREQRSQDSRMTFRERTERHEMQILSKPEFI

What follows are compounds tested against Neuropeptide S receptor (Homo sapiens) (UniProt Q6W5P4) (assay: Confirmation Concentration-Response Assay for Antagonists of the Neuropeptide S Receptor: Calcium Signal Transduction, SAR for Probe). Settings: CHO-NPSR cells, NPS-induced calcium fluorescence, FDSS; series mostly up to 19.3 µM; activity change, negative = inhibition: at the top concentration.
Outline: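 Calcium flux was measured by kinetic fluorescence in dye-loaded CHO-NPSR cells, first after compound addition (210 s), then after NPS challenge (60 nM in stimulation reagent, 140 s). Hill-equation fitting gave AC50.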

Potency, inconclusive:
CCCCNS(=O)(=O)c1ccc2nc(-c3cccnc3)cc(C(=O)NC(C)CC)c2c1 (stereo not given) 3.55 µM [antagonist, partial curve, poor fit]
S=C(Nc1ccccn1)c1ccccn1 0.178 µM [antagonist, full curve, poor fit]
CN(C)S(=O)(=O)Nc1ccccc1C(N)=O 0.126 µM [antagonist, full curve, poor fit]
O=C(CSc1cccc[n+]1[O-])Nc1ccccc1Oc1ccccc1 0.0126 µM [antagonist, full curve, poor fit]
CCOc1ccccc1NC1=CC(=O)CC(c2ccccc2)C1 (stereo not given) 0.199 µM [antagonist, full curve]
Cc1nc2ccccn2c1C(O)(c1ccccc1)c1ccccc1 55.1 µM [antagonist, partial curve, poor fit]

Potency, active:
COc1ccc(-n2cnc3c(c2=N)C(c2cccc(OC)c2)c2c(ccc4ccccc24)O3)cc1 (stereo not given) 4.38 µM

Activity change, negative = inhibition, inactive:
CCOC(=O)c1cnc(-n2nc(C)cc2C)nc1Nc1ccc(C)cc1 -19.5%
COc1ccc(C2c3c(N)nc(CCCc4ccccc4)nc3Oc3ccc4ccccc4c32)cc1OC (stereo not given) -53.4% [at 50.9 µM]
COc1ccc(C2c3ccc(OCc4ccccc4)cc3Oc3ncn(CCN4CCOCC4)c(=N)c32)cc1OC (stereo not given) -60.5% [at 50.9 µM]
